{
  "source": "paper PMC12127550",
  "about": "(The Journal of Biological Chemistry, 2025)",
  "origin": "cited, not measured here",
  "system": "OATP1B1",
  "details": "no reference given; cited from earlier work",
  "data": [
    {"smiles": "CC(C)c1c(C(=O)Nc2ccccc2)c(-c2ccccc2)c(-c2ccc(F)cc2)n1CC[C@@H](O)C[C@@H](O)CC(=O)O", "note": "[atorvastatin]", "values": [
      {"measurement": "inhibition of and transport by OATP1B1", "value": "non-inhibitory transport substrate for OATP1B1"}
    ]}
  ]
}
